Source: publication PMC3758296

The chains behind the UniProt entries cited, without tags or fusion partners. Where a name states a change or a piece, a line headed by the entry shows the natural chain unless it says otherwise. A line that says so, or that is headed by a name, gives the form on record, which may keep a tag or linker.
UniProt P00441: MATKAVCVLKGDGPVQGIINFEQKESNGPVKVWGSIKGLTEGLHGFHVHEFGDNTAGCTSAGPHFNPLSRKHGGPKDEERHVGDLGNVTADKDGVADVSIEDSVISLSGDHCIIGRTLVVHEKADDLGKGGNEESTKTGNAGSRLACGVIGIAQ
human SOD1 G93A mutant protein, transgene product (P00441, form named): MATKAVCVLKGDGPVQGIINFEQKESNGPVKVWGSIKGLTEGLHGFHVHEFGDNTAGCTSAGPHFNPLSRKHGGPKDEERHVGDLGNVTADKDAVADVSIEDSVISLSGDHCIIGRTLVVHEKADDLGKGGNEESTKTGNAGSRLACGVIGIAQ
UniProt Q9QYI5: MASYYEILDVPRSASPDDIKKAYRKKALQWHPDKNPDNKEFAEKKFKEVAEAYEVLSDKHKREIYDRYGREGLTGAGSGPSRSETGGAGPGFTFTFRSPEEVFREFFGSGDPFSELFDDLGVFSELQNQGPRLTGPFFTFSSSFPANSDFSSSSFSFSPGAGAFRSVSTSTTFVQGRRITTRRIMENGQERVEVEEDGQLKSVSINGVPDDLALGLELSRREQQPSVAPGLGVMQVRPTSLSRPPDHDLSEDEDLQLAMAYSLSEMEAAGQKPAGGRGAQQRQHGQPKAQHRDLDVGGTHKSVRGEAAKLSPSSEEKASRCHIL

Target: human SOD1 G93A mutant protein, transgene product (human) (UniProt P00441)
Experiment: co-IP; spinal cord lysates (PBS, protease inhibitors, sonicated) of WT, hHSJ1a, G93A and DBLE male mice at 120 days; reciprocal precipitation with anti-SOD1 (C4F6) or anti-HSJ1 (S653) on protein-G Dynabeads, control IgG; Western blot for HSJ1 and SOD1

## endogenous mouse HSJ1a (from UniProt Q9QYI5)
  binding: no binding

These are yes or no findings as the source states them, for the method shown. In cells and extracts the contact can be indirect.
